This is an account of results in PubChem BioAssay (NCATS).

Amino acid sequences for entries named in this document (tags omitted).
UniProt P21964, whole entry: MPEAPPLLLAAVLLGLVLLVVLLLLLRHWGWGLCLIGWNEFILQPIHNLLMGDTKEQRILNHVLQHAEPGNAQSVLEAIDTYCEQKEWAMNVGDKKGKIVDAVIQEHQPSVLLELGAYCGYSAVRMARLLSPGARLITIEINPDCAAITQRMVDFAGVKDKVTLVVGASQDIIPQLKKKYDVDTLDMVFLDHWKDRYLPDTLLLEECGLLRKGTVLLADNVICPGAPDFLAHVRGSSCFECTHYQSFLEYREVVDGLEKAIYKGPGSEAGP
UniProt P40261, whole entry: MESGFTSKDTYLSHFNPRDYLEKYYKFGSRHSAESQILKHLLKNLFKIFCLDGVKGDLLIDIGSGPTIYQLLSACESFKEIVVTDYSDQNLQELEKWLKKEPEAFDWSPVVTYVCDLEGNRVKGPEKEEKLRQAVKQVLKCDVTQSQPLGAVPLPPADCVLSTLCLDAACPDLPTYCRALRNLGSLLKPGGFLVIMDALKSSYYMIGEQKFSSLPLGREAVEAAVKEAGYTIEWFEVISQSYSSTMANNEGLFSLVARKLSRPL
UniProt P11086, whole entry: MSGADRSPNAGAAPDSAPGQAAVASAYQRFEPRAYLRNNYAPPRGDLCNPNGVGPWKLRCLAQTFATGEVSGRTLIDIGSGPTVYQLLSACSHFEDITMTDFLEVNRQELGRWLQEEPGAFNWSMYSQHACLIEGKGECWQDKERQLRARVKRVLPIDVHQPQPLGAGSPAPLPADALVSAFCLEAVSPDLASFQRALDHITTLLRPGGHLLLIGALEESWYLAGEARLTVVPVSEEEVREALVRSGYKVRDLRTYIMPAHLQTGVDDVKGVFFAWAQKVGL

Assay [1] in a line: qHTS assay for small molecule agonists of retinoid X receptor alpha signaling (AID 588544). The conditions noted are these: HEK293T RXRa-UAS-bla, beta-lactamase reporter, 18 h; 530 nm emission. (In qHTS, concentration-response curves come from the screen itself.)
The nature of assay [2]: qHTS assay for small molecule antagonists of retinoid X receptor alpha signaling (AID 588546).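 Note: cells stimulated with 9-cis-retinoic acid as agonist; % is set by controls: 0 for no effect and ±100 for the full control effect.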 Conditions: HEK293T RXRa-UAS-bla, beta-lactamase ratio, antagonist mode; measured here: W530 green channel, cytotoxicity proxy. The essentials: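 Beta-lactamase reporter inhibition, read as CCF4 fluorescence ratio (ex 405, em 460/530 nm) after 2 h at RT. HEK293T UAS-bla cells, 2500/well, were stimulated with 9-cis-RA at 500 or 100 nM final alongside test compound for 18 h at 37 C.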

Assay [3] can be described thus: qHTS assay for small molecule antagonists of peroxisome proliferator-activated receptor delta signaling (AID 588535).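 Note: cells co-treated with a PPAR-delta agonist as stimulator during compound exposure.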 The conditions noted are these: HEK293T PPARd-UAS-bla, beta-lactamase FRET ratio, 18 h; 460 nm channel.
Assay [4] in a line: Nrf2 qHTS screen for inhibitors: Validation (AID 493153). The conditions noted are these: A549 ARE-Fluc reporter, 18-24 h; measured here: cytotoxicity max response. In short, it runs like this:
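Concentration-response on A549 ARE_Fluc reporter cells exposed 18-24 h at 37 C, 5% CO2. Cytotoxicity read first by CellTiter-Fluor fluorescence (Ex 405/Em 525), then Nrf2 inhibition by BugLite luminescence after 15 min.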

Assay [5] addresses Catechol O-methyltransferase (Homo sapiens) (UniProt P21964). The assay can be described thus: Confirmatory Screen for Target Class Profiling of Small Molecule Inhibitors of Methyltransferases (AID 1745852). The conditions noted are these: MTase-Glo luminescence, SAH detection, recombinant enzyme; measured here: COMT max response; stronger effect = lower value.
Assay [6] concerns the target Nicotinamide N-methyltransferase (Homo sapiens) (UniProt P40261). Described as above. Conditions: MTase-Glo luminescence, SAH detection, recombinant enzyme; measured here: NNMT max response; stronger effect = lower value.
The target in assay [7] is Phenylethanolamine N-methyltransferase (Homo sapiens) (UniProt P11086). The assay is described as above. The conditions noted are these: MTase-Glo luminescence, SAH detection, recombinant enzyme; measured here: PNMT max response; stronger effect = lower value.
Assay [8] in a line: qHTS drug screen for cell cycle checkpoint inhibitors in PARPi-resistant BRCA-mutant ovarian cancer cell lines. (AID 1963452). Conditions: PEO1/OlaR viability, CellTiter-Glo luminescence, 96 h, stronger effect = lower value. The essentials:
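PEO1, PEO4 and PEO1/OlaR ovarian cancer cells, 600 per well, exposed 96 h at 37C to a dilution series. Viability read by CellTiter-Glo luminescence, normalized to DMSO and empty wells; activity summarized as Z-AUC.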

The nature of assay [9]: qHTS Assay for Lipid Storage Modulators (AID 1519). Conditions: Drosophila S3 cells, BODIPY lipid droplet/cell ratio, laser cytometry, cells loaded with oleic acid.
[10] abbreviates: measured here: PEO1 parental Z-AUC.
[11] abbreviates: measured here: cell count channel max response.
The mark [12] stands for this setting: measured here: lipid channel max response.

Several values for one entry are separate records, joined by “and”; a condition that tells them apart may be missing. Equal entries are not always repeated. This is one part of the list. Some salts or complexes appear as unconnected parts, following the source record.

As to `[NH4+].[O-][Cl+3]([O-])([O-])[O-]`, the max response in assay [1] was -9.29%; in assay [2], 4.58%.
Regarding `Cc1ccc([N+](=O)[O-])cc1[N+](=O)[O-]`, the max response in assay [1] is -12.2% and -15.7%; in [2], -10.5% and -10.2%.
As to `Cc1c([N+](=O)[O-])cccc1[N+](=O)[O-]`, the max response in assay [1] is -2.92% and -22.6%; in assay [2] it was -11.4% and -5.71%.
As for `CCC(C)(OO)OOC(C)(CC)OO` (stereo not drawn), the max response is -22.2% in assay [3]; -14.1% and -2.15% in assay [1]; -5.79% and -7.53% in assay [2].
Consider `CN(C(=O)Cc1ccc(Cl)c(Cl)c1)[C@H]1CCCC[C@@H]1N1CCCC1`, for which the viability change in assay [4] is 2.46% and -4.32%.
Regarding `N[C@@H](Cc1ccc([N+]([O-])(CCCl)CCCl)cc1)C(=O)O`, the activity in assay [5] was 6.9%; in [6] it was -33.8%; in assay [7], 5.12%. In addition, the Z-AUC in assay [8] (setting [10]) stood at 0.112; in assay [8] (measured here: PEO4 Z-AUC) it was 0.117.
`COP(=S)(Cl)OC`: the max response in assay [2] is -19.3%.
As for `C/C1=C2/N=C(C(CC(N)=O)C2(C)CCC(=O)NCC(C)OP(=O)([O-])OC2C(CO)OC(n3cnc4cc(C)c(C)cc43)C2O)C2(C)N=C(/C(C)=C3N=C(/C=C4N=C1C(CCC(N)=O)C\4(C)C)C(CCC(N)=O)C/3(C)CC(N)=O)C(CCC(N)=O)C2(C)CC(N)=O.[C-]#N.[Co]` (stereo not drawn), the values for the Z-AUC in assay [8] (setting [10]) and in [8] (measured here: PEO4 Z-AUC) were 1.41 and 1.25, respectively.
As to `CN(C(=O)Cc1ccc(Cl)c(Cl)c1)[C@@H]1CCCC[C@@H]1N1CCCC1`, in [4], the viability change is -3.07%. Further, the activity in assay [5] is 4.03%; in assay [6], 0.599%; in [7] it was 6.42%.
For `CCOP(=S)(CC)Oc1cc(Cl)c(Cl)cc1Cl` (stereo not drawn), the results for the max response in assay [3], in assay [1] and in [2] were -22.5%, -7.84% and -20.2%, respectively.
In the case of `O=[N+]([O-])c1cccc([N+](=O)[O-])c1`, the max response in assay [3] was 42.4% and -6.4%; in assay [1] it was -9.49%; in assay [2], -2.04% and -20.3%.
Consider `CCN(CCCl)Cc1ccccc1C`, for which the max response in [9] (setting [11]) was 18.3%; in [9] (setting [12]), 27.3%.
On to `NC(=O)Nc1ccc([As](=O)(O)O)cc1`, for which the max response in assay [3] was -22.8%; in assay [2], -4.65%.
Consider `ClP(Cl)c1ccccc1`, for which the max response was 9.53% in [3], -9.19% in [1] and -22.5% in assay [2].
`CN(C(=O)Cc1ccccc1)[C@@H]1CC[C@]2(CCCO2)C[C@H]1N1CCCC1`: the max response in [9] (setting [11]) amounted to 15.6%; in [9] (setting [12]), 19.2%. Also, the viability change in assay [4] is -5.32%.
